Source: PubChem BioAssay AID504648 (National Center for Advancing Translational Sciences (NCATS), 2011)
The campaign covered roughly 390,000 compounds. About 610 (0.16%) were called active. The inconclusive results got no clear call from the source; some entries with a clear call stand among them for comparison. Calls come from the whole dose curve; as a rule, active = well fitted inhibition curve with a large enough effect; inconclusive = small, poorly fitted or top-dose-only effect, or effect the other way, or another doubt; inactive = no such curve, though single readings can be large or run the other way. Where the call is inconclusive, the potency comes from a doubtful curve fit.

assay: Nrf2 qHTS screen for inhibitors: counterscreen for cytotoxicity; conditions: A549 ARE-Fluc cells, CellTiter-Fluor viability, 18-24 h; series mostly up to 46 µM
Outline: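 A549 ARE_Fluc cells in 5% FBS OPTI-MEM were exposed to compounds in concentration-response for 18-24 h at 37 deg C. Viability was read by CellTiter-Fluor fluorescence (Ex 405/Em 525) after 30 min, before the luciferase read.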
Potency is the fitted concentration of half-maximal effect.

Structure (SMILES) | Potency
CCOC(=O)C1=C(C)NC(SCC(N)=O)=C(C#N)C1c1cccs1 (stereo unspecified) | inactive
COc1ccc(NC(=O)CN2CCCN(S(=O)(=O)c3ccc(Br)cc3)CC2)c(OC)c1 | active: 18.4 µM
CC(C)[C@H](NC(=O)OC(C)(C)C)C(=O)N/N=C/c1ccc2nccnc2c1 | inconclusive: 0.651 µM [activator, full curve, poor fit]
CCC(C)(C)n1nnnc1C(c1cc2ccc(OC)cc2[nH]c1=O)N1CCc2ccccc21 (stereo unspecified) | inconclusive: 18.4 µM [falling, single point]
Cc1cn([C@@H](CCCCN)C(=O)NCCCCCCCCCCC(=O)N2CCNCC2)nn1 | inactive
Cc1cc(/C=C2/C(=O)N(C)C(=S)N2C)ccc1N1CCCC1 | inactive
O=C1NC(=Nc2ccccc2)S/C1=C\c1cccn1-c1ccccc1 | inconclusive: 13 µM [falling, single point]
COc1ccc(-n2c(SCCNCCO)nc3sc4c(c3c2=O)CCCC4)cc1 | inactive
N#Cc1cc2c([nH]c1=S)CCCC2 | inactive
O=C1CCCc2cc3c(cc21)CCCC3 | inactive
[O-][n+]1c2c(c3c4non(O)c4ccc31)CCCC2 | inconclusive: 16.4 µM [falling, partial curve, poor fit]
Cc1sc2ncnc(N3CCC(C(=O)NCC(=O)Nc4ccc(F)c(F)c4)CC3)c2c1C | inconclusive: 18.4 µM [falling, single point]
O=C(CCc1ccc(S(=O)(=O)N2CCOCC2)cc1)Nc1nc(COc2ccccc2)cs1 | inconclusive: 14.6 µM [falling, partial curve, poor fit]
COc1ccccc1/C=C/c1nc(S(=O)(=O)c2ccccc2)c(NCCN(C)C)o1 | inconclusive: 18.4 µM [falling, partial curve, poor fit]
NC(=O)[C@@H]1CCCNc2c(F)cc([N+](=O)[O-])cc2C(=O)N[C@@H](CCC(=O)O)C(=O)N[C@@H](CO)C(=O)N1 | inconclusive: 25.9 µM [falling, partial curve, poor fit]
O=C(Nc1ccccc1C(=O)NC1CC1)c1ccc([N+](=O)[O-])o1 | inactive
O=C1C=C(O)c2[nH]c(=O)ccc2C1=O | inconclusive: 18.4 µM [falling, partial curve, poor fit]
O=C1c2ccccc2-c2onc3ccc(NCCCn4ccnc4)c1c23 | inconclusive: 29.1 µM [falling, single point]
O=C(CCCn1c(=S)[nH]c2cc3c(cc2c1=O)OCO3)N1CCN(c2ccccc2F)CC1 | inconclusive: 20.6 µM [falling, partial curve, poor fit]
Cc1ccc(C)c(N(CC(=O)N2CCCCCC2)S(C)(=O)=O)c1 | inconclusive: 0.184 µM [falling, partial curve, poor fit]
O=C(CN1CCSc2ccccc21)NCc1ccccc1F | inconclusive: 4.61 µM [activator, partial curve]

Structure (SMILES) | Potency
CCNC(=O)CC1C(=O)N(c2ccccc2)C(=O)N1CCOC (stereo unspecified) | inactive
COC(=O)c1sc2ncccc2c1OCc1c(Cl)cccc1Cl | inactive
COc1cc(C)ccc1OCCSc1nc(-c2cccc(C)c2)nc2cc(=O)[nH]n12 | inconclusive: 20.6 µM [activator, partial curve, poor fit]
O=C(CN1/C(=C(/O)c2ccccc2)C(=O)c2ccccc2S1(=O)=O)c1ccccc1 | inconclusive: 13 µM [falling, partial curve, poor fit]
CCN(CC)c1ccc(Nc2nc(N3CCOCC3)c3ccccc3n2)cc1 | inconclusive: 29.1 µM [falling, single point]
Cc1ccc(-c2cc(-c3ccc4c(c3)OCO4)c(C#N)c(N)n2)o1 | inconclusive: 25.9 µM [falling, single point]
Cc1ccc(-c2noc(-c3ccc(NCc4ccco4)c([N+](=O)[O-])c3)n2)cc1 | inactive
COC(=O)[C@@]1(Cc2ccccc2)[C@@H]2C(=CC(=O)[C@H]2CC(=O)C(=O)N(C)C)CN1C(=O)c1ccccc1 | inconclusive: 25.9 µM [falling, partial curve, poor fit]
O=C(N/N=C/c1cc([N+](=O)[O-])ccc1O)/C(=C\c1cccs1)NC(=O)c1ccccc1 | inconclusive: 18.4 µM [falling, partial curve, poor fit]
CN(C)c1ccc(C=c2c3ccccc3n3c2cc(-c2ccccc2)[n+]3C)cc1 | active: 16.4 µM
Cc1c(C(=O)Nc2cccc(Cl)c2)c2ccccn2c1CCc1ccncc1 | inconclusive: 29.1 µM [falling, partial curve, poor fit]
CCc1ccc(OCC(=O)N/N=C/c2cc([N+](=O)[O-])ccc2N2CCCCCC2)cc1 | inconclusive: 18.4 µM [falling, partial curve, poor fit]
CN(C)C(=S)SCC(=O)NC(=O)NC(C)(C)C | inconclusive: 1.16 µM [activator, partial curve]
O=c1cc(C=NNc2ccc([N+](=O)[O-])cc2)[nH]c(=O)[nH]1 | inconclusive: 32.6 µM [falling, partial curve, poor fit]
CCN(Cc1ccccc1)C(=O)CSc1n[nH]c(N)n1 | inconclusive: 3.26 µM [falling, partial curve, poor fit]
CCCCN(C)CCCNC(=O)Cn1ncc2c3ccccc3n(Cc3ccccc3F)c2c1=O | inconclusive: 29.1 µM [falling, single point]
CSc1ccc(COC(=O)c2cc([N+](=O)[O-])ccc2N2CCOCC2)cc1 | inconclusive: 4.61 µM [falling, partial curve, poor fit]
[O-][n+]1c2cc(C(F)(F)F)ccc2c2n1CCN=C2c1ccc(Cl)cc1 | inactive
COc1ccc(Cc2[nH]n3c(=O)cc(C(C)C)nc3c2-c2ccccc2)cc1 | inconclusive: 29.1 µM [falling, single point]
Cc1cccc(CNc2ccc(C(CC(N)=O)NC(=O)Cc3cccc4ccccc34)cc2[N+](=O)[O-])c1 (stereo unspecified) | inconclusive: 23.1 µM [falling, partial curve, poor fit]
